These are yes or no findings as the source states them, for the method shown. Binding calls can cover weak binding; strength is not graded here. Tags and fused reporters may be left off the sequences shown. For some assays here: Binding seen in cells or lysates may run through a third protein.
T1: AtSCC3 (SISTER CHROMATID COHESION 3), yeast two-hybrid fusion in pGBKT7 (Arabidopsis thaliana) (UniProt O82265)
T1 sequence: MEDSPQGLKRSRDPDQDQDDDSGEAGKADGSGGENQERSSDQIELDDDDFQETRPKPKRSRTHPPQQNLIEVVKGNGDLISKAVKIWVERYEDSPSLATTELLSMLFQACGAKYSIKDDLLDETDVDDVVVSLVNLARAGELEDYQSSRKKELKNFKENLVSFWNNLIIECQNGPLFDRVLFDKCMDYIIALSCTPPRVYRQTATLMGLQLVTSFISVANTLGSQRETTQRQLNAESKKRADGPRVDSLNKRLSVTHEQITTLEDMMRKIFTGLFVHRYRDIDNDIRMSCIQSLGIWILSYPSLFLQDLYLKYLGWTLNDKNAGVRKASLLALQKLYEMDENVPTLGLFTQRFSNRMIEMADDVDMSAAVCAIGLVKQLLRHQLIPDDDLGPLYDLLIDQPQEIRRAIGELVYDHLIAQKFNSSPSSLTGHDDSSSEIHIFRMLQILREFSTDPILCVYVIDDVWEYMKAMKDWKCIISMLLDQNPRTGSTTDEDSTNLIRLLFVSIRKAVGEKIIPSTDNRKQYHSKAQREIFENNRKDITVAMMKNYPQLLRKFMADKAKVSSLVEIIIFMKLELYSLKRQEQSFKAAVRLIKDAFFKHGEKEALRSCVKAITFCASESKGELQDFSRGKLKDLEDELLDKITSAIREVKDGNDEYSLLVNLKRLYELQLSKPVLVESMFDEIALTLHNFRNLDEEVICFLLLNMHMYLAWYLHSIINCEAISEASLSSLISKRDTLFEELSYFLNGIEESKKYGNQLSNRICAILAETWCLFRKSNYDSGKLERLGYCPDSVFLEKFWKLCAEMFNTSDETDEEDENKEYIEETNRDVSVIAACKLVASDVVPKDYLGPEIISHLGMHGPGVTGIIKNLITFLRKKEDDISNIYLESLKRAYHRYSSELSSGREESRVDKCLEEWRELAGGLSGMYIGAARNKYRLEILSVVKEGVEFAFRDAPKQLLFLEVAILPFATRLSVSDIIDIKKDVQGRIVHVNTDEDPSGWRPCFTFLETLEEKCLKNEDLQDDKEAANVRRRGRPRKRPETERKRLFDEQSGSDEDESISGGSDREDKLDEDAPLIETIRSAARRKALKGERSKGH

T2: NSCC3: AtSCC3 fused with the N-terminal of LUC (Arabidopsis thaliana) (UniProt O82265)
T2 sequence: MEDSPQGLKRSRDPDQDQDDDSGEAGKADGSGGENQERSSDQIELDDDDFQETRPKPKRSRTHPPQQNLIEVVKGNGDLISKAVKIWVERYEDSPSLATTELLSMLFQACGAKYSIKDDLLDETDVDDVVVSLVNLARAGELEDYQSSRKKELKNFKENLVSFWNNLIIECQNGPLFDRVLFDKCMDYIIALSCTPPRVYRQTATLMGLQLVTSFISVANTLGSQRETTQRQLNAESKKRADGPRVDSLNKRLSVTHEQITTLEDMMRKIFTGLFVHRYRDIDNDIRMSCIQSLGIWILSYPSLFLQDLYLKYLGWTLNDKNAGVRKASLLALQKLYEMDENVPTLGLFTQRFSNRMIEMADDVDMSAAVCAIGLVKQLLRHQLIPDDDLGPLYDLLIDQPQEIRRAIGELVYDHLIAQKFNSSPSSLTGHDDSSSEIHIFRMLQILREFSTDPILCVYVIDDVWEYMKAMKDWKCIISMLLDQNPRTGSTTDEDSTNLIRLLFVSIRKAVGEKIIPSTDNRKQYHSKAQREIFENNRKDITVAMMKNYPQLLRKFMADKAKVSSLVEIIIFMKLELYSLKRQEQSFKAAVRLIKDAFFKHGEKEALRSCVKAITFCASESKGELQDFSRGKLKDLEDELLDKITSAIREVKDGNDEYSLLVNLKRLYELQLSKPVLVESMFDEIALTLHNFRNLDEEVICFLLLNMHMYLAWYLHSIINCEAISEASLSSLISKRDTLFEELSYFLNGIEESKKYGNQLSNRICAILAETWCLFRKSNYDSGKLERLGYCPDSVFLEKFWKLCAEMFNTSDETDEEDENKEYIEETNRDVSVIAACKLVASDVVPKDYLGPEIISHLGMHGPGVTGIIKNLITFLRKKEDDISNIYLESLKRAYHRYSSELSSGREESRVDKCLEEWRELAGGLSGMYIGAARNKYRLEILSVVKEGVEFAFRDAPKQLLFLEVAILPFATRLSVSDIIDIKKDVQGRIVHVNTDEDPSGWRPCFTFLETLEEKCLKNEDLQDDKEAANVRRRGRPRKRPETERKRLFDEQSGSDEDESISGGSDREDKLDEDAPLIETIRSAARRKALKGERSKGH

T3: CSCC3: AtSCC3 fused with the C-terminal of LUC (Arabidopsis thaliana) (UniProt O82265)
T3 sequence: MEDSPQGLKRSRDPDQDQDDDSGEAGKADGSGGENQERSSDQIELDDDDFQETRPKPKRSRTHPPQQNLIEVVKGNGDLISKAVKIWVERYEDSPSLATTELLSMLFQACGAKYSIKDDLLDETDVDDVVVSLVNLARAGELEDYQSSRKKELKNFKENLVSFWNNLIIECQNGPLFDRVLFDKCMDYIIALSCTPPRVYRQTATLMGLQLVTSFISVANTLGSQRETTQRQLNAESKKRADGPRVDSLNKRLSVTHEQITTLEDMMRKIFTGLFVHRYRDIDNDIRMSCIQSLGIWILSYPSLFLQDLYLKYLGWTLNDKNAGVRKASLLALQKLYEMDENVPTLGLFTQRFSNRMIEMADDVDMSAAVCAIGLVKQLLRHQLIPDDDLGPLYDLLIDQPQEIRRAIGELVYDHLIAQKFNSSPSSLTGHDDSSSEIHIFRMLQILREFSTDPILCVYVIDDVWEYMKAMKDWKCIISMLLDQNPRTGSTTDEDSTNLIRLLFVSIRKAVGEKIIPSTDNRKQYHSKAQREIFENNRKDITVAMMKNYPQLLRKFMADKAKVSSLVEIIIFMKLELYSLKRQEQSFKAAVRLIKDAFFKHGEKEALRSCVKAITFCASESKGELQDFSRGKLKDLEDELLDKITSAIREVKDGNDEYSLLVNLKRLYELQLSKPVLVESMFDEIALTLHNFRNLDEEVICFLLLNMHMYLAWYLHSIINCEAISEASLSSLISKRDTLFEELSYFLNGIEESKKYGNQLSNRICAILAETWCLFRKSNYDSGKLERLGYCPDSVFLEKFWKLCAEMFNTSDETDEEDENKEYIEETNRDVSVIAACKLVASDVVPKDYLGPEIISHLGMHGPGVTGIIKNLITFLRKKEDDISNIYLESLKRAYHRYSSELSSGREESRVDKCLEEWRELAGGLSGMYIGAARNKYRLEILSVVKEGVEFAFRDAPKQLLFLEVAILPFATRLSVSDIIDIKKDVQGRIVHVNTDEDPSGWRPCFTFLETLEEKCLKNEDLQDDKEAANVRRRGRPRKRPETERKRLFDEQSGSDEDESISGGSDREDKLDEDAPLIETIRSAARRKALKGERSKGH


What was measured:
[1] = target: T1, AtSCC3 (SISTER CHROMATID COHESION 3), yeast two-hybrid fusion in pGBKT7 (Arabidopsis thaliana); assay: two-hybrid; yeast AH109, pGBKT7 and pGADT7 constructs co-transformed; growth on SD-Leu-Trp-His-Ala, 3-7 days at 30 C
[2] = target: T2, NSCC3: AtSCC3 fused with the N-terminal of LUC (Arabidopsis thaliana); assay: split reporter; firefly luciferase complementation imaging; N- and C-terminal LUC fragment fusions co-infiltrated into N. benthamiana leaves, imaged 48 h later with luciferin
[3] = target: T3, CSCC3: AtSCC3 fused with the C-terminal of LUC (Arabidopsis thaliana); assay: as above
[4] = target: AtBMI1A-YFP (Arabidopsis thaliana); assay: co-IP; AtBMI1A/B/C-YFP, AtSYN4-FLAG and AtSCC3-FLAG co-expressed in N. benthamiana leaves; nuclear proteins on anti-GFP magnetic beads overnight at 4 C; blots with anti-GFP and anti-FLAG
[5] = target: AtBMI1C-YFP (Arabidopsis thaliana); assay: as above
[6] = target: AtBMI1B-YFP (Arabidopsis thaliana); assay: as above

binding [2]	binding [3]	Molecule	also measured
		AtBMI1A, yeast two-hybrid fusion in pGADT7 (Arabidopsis thaliana)	binding [1]: binds
no binding		AtSYN2, LUC-fragment fusion (Arabidopsis thaliana)	
no binding		AtSYN3, LUC-fragment fusion (Arabidopsis thaliana)	
	binds	NBMI1A: AtBMI1A fused with the N-terminal of LUC (Arabidopsis thaliana)	
	binds	NBMI1B: AtBMI1B fused with the N-terminal of LUC (Arabidopsis thaliana)	
no binding		AtSYN1, LUC-fragment fusion (Arabidopsis thaliana)	
binds		CSYN4: AtSYN4 fused with the C-terminal of LUC (Arabidopsis thaliana)	
	binds	NBMI1C: AtBMI1C fused with the N-terminal of LUC (Arabidopsis thaliana)	
		AtSCC3-FLAG (protein, UniProt O82265 1-1098) MEDSPQGLKRSRDPDQDQDDDSGEAGKADGSGGENQERSSDQIELDDDDFQETRPKPKRSRTHPPQQNLIEVVKGNGDLISKAVKIWVERYEDSPSLATTELLSMLFQACGAKYSIKDDLLDETDVDDVVVSLVNLARAGELEDYQSSRKKELKNFKENLVSFWNNLIIECQNGPLFDRVLFDKCMDYIIALSCTPPRVYRQTATLMGLQLVTSFISVANTLGSQRETTQRQLNAESKKRADGPRVDSLNKRLSVTHEQITTLEDMMRKIFTGLFVHRYRDIDNDIRMSCIQSLGIWILSYPSLFLQDLYLKYLGWTLNDKNAGVRKASLLALQKLYEMDENVPTLGLFTQRFSNRMIEMADDVDMSAAVCAIGLVKQLLRHQLIPDDDLGPLYDLLIDQPQEIRRAIGELVYDHLIAQKFNSSPSSLTGHDDSSSEIHIFRMLQILREFSTDPILCVYVIDDVWEYMKAMKDWKCIISMLLDQNPRTGSTTDEDSTNLIRLLFVSIRKAVGEKIIPSTDNRKQYHSKAQREIFENNRKDITVAMMKNYPQLLRKFMADKAKVSSLVEIIIFMKLELYSLKRQEQSFKAAVRLIKDAFFKHGEKEALRSCVKAITFCASESKGELQDFSRGKLKDLEDELLDKITSAIREVKDGNDEYSLLVNLKRLYELQLSKPVLVESMFDEIALTLHNFRNLDEEVICFLLLNMHMYLAWYLHSIINCEAISEASLSSLISKRDTLFEELSYFLNGIEESKKYGNQLSNRICAILAETWCLFRKSNYDSGKLERLGYCPDSVFLEKFWKLCAEMFNTSDETDEEDENKEYIEETNRDVSVIAACKLVASDVVPKDYLGPEIISHLGMHGPGVTGIIKNLITFLRKKEDDISNIYLESLKRAYHRYSSELSSGREESRVDKCLEEWRELAGGLSGMYIGAARNKYRLEILSVVKEGVEFAFRDAPKQLLFLEVAILPFATRLSVSDIIDIKKDVQGRIVHVNTDEDPSGWRPCFTFLETLEEKCLKNEDLQDDKEAANVRRRGRPRKRPETERKRLFDEQSGSDEDESISGGSDREDKLDEDAPLIETIRSAARRKALKGERSKGH	binding [4]: binds; binding [5]: binds; binding [6]: binds

From PMC9984397
